Test results as given in publication PMC12588883.
No constants are given. Whether binding was seen depends on the method and setting. In cells and extracts the contact can be indirect. Some results given as binding are weak or reduced against the parent protein; the word gives no strength.

Tests used:
[1] = molecular target: Human TDP-43-Q331K-YFP (human) (UniProt Q13148); test: co-IP; TDP-43-YFP variants transfected into U2OS or SH-SY5Y cells (21 h), precipitated with GFP antibody on protein G Dynabeads from lysate in Pierce lysis buffer; immunoblot for endogenous NSUN1; U2OS cells also after 1 μg/ml actinomycin D
[2] = molecular target: Human TDP-43-WT-YFP (human) (UniProt Q13148); test: as above
[3] = molecular target: TAR DNA-binding protein of 43 kD (TDP-43), endogenous (human (endogenous in SH-SY5Y and U2OS)) (UniProt Q13148); test: co-IP; endogenous proteins; antibody to NSUN1 (rabbit, N-terminal) or to TDP-43 (mouse) or normal IgG on protein G Dynabeads, U2OS or SH-SY5Y lysate in Pierce IP lysis buffer, 4°C, 18 h; immunoblot for NSUN1 and TDP-43

Measured: binding

B1: NSUN1 isoform 3, endogenous (protein, UniProt P46087-4 1-845)
chain: MGRKLDPTKEKRGPGRKARKQKGAETELVRFLPAVSDENSKRLSSRARKRAAKRRLGSVEAPKTNKSPEAKPLPGKLPKGISAGAVQTAGKKGPQSLFNAPRGKKRPAPGSDEEEEEEDSEEDGMVNHGDLWGSEDDADTVDDYGADSNSEDEEEGEAAGVQWLGLGSLQPPPPGFKQFSCLSFPSSWDLQLLPIERAARKQKAREAAAGIQWSEEETEDEEEEKEVTPESGPPKVEEADGGLQINVDEEPFVLPPAGEMEQDAQAPDLQRVHKRIQDIVGILRDFGAQREEGRSRSEYLNRLKKDLAIYYSYGDFLLGKLMDLFPLSELVEFLEANEVPRPVTLRTNTLKTRRRDLAQALINRGVNLDPLGKWSKTGLVVYDSSVPIGATPEYLAGHYMLQGASSMLPVMALAPQEHERILDMCCAPGGKTSYMAQLMKNTGVILANDANAERLKSVVGNLHRLGVTNTIISHYDGRQFPKVVGGFDRVLLDAPCSGTGVISKDPAVKTNKDEKDILRCAHLQKELLLSAIDSVNATSKTGGYLVYCTCSITVEENEWVVDYALKKRNVRLVPTGLDFGQEGFTRFRERRFHPSLRSTRRFYPHTHNMDGFFIAKFKKFSNSIPQSQTGNSETATPTNVDLPQVIPKSENSSQPAKKAKGAAKTKQQLQKQQHPKKASFQKLNGISKGADSELSTVPSVTKTQASSSFQDSSQPAGKAEGIREPKVTGKLKQRSPKLQSSKKVAFLRQNAPPKGTDTQTPAVLSPSKTQATLKPKDHHQPLGRAKGVEKQQLPEQPFEKAAFQKQNDTPKGPQPPTVSPIRSSRPPPAKRKKSQSRGNSQLLLS
binds: all assays above
